Here are results for 40 compounds from PubChem BioAssay AID445 (National Center for Advancing Translational Sciences (NCATS), 2006).

Some of the results follow. These are further read-outs of the screen, such as a control signal, another cell line or another target. No call is given for them. Most of these compounds were active or inconclusive in the main read-out, so they are no random draw. Potencies come from curve fits of mixed quality, noted in brackets.

The nature of the assay: IkB Signaling. The settings on record: ABC-DLBCL IkBa-CBG/CBR dual luciferase ratio (green luciferase fused to IkBa over red control in OCI-Ly3 lymphoma cells), 4 h; measured here: control luc red channel unless noted. The essentials:
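Luminescence ratio of IκBα-fused green versus native red beetle luciferase in OCI-Ly3 cells, 4 h post-doxycycline with compound; red signal alone, scaled from basal (0%) to zero light (-100%), flagged nonspecific or cytotoxic effects.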
`Cc1ccc(-n2ncc3c(N4CCCCCC4)ncnc32)cc1Cl`: the concentration at half-maximal activity (AC50) is 1.58 µM [falling, partial curve].

Take `COc1ccccc1CNC(=O)CCc1c(C)nc2cc(-c3ccc(Cl)cc3)nn2c1C`: the AC50 is 0.398 µM [falling, full curve].

Take `Cc1cc2oc(=O)c(CC(=O)NCCc3ccccc3F)c(C)c2c2occ(C(C)(C)C)c12`: the half-maximal activity concentration (AC50) was 20 µM [falling, partial curve].

For the compound `CC(=O)Nc1cc(C(=O)NCc2ccc(F)cc2)ccc1Sc1ccc(F)cc1`, the concentration at half-maximal activity (AC50) is 12.6 µM [falling, partial curve, poor fit].

In the case of `CCCCN(C(=O)C1CCC(CNS(=O)(=O)c2cccc3nsnc23)CC1)c1ccccc1` (stereo not given), the AC50 is 25.1 µM [falling, partial curve].

Take `COc1ccc(CC(=O)NCC(c2cccs2)S(=O)(=O)c2ccc(F)c(C)c2)cc1` (stereo not given): the AC50 is 25.1 µM [falling, single point].

Take `COc1ccccc1C(=O)N/C(=C\c1cn(S(=O)(=O)N(C)C)c2ccccc12)C(=O)NCCCn1ccnc1`: the concentration at half-maximal activity (AC50) was 20 µM [falling, partial curve].

For `CCc1ccc(CNC(=O)C2CCCN(c3nnc(C)c4c(C)n(-c5ccccc5)nc34)C2)cc1` (stereo not given), the AC50 was 12.6 µM [falling, partial curve].

In the case of `Cc1cc2n(n1)CCC(=O)N2Cc1ccc(C(=O)Nc2cc(Cl)ccc2C)cc1`, the AC50 was 3.98 µM [falling, partial curve].

In the case of `COc1ccc(OC)c(NC(=O)C2CCCN(S(=O)(=O)c3ccc4c(c3)CCCC(=O)N4)C2)c1` (stereo not given), the AC50 was 5.01 µM [falling, single point].

For the compound `COc1ccccc1C(=O)Nc1ccc2nc(SCC(=O)N3CCCc4ccccc43)sc2c1`, the AC50 is 0.2 µM [falling, full curve].

For `COc1ccccc1NC(=O)C1=C(C)Nc2nc(SC)nn2C1c1ccccc1Cl` (stereo not given), the AC50 is 25.1 µM [falling, partial curve].

On to `COc1cc(-c2nc(SCC(=O)Nc3ccc4c(c3)OCO4)c(-c3ccccc3)[nH]2)cc(OC)c1OC`, for which the AC50 was 12.6 µM [falling, partial curve].

For the compound `COc1ccc(-c2nnc(C3CCN(S(=O)(=O)c4cccc(Cl)c4)CC3)o2)cc1`, the concentration at half-maximal activity (AC50) is 15.8 µM [falling, single point].

In the case of `COc1ccc(-c2nnc(SCC(=O)N3CCC(C)CC3)o2)cc1`, the AC50 was 39.8 µM [falling, single point].

Consider `CN(CC(=O)Nc1ccc(Cl)cc1)S(=O)(=O)c1cccc2cccnc12`, for which the AC50 was 12.6 µM [falling, partial curve].

Regarding `COc1ccc(NC(=O)N2CCn3c2nc2ccccc23)cc1`, the AC50 was 10 µM [falling, partial curve].

With `O=C(Nc1sc2c(c1C(=O)NCC1CCCO1)CCCC2)c1cccs1` (stereo not given), the half-maximal activity concentration (AC50) was 12.6 µM [falling, partial curve].

With `COc1ccc(OCCn2c(NC(=O)c3ccc(OC)cc3)nc3ccccc32)cc1`, the AC50 was 7.94 µM [falling, partial curve].

`CC1CCN(CC[S-])CC1.O.O.[Cl][Pt]`: the concentration at half-maximal activity (AC50) is 1.58 µM [falling, partial curve].

As to `O=C1c2c(O)ccc([N+](=O)[O-])c2C(=O)c2c([N+](=O)[O-])ccc(O)c21`, the AC50 is 2.51 µM [falling, full curve].

For `O=S(=O)(c1ccc(F)cc1)N1CCC(Oc2cccc(C(F)(F)F)c2)CC1`, the concentration at half-maximal activity (AC50) is 25.1 µM [falling, single point].

Regarding `COc1ccc(S(=O)(=O)N2Cc3ccccc3CC2C(=O)Nc2ccc(C)cc2)cc1OC` (stereo not given), the half-maximal activity concentration (AC50) is 39.8 µM [falling, single point].

Take `CCCC(c1nnnn1C(C)(C)CC)N(Cc1ccco1)Cc1cc2ccc(OC)cc2[nH]c1=O` (stereo not given): the concentration at half-maximal activity (AC50) was 10 µM [falling, partial curve].

`Cc1c2cnn(-c3ccccc3)c(=O)c2c(C)n1C(C)C(=O)Nc1ccccc1C(F)(F)F` (stereo not given): the concentration at half-maximal activity (AC50) is 10 µM [falling, partial curve].

As to `Cc1ccc(C)c(NC(c2ccccc2)c2nnc(-c3ccccc3F)o2)c1` (stereo not given), the half-maximal activity concentration (AC50) was 12.6 µM [falling, partial curve].

As to `CCOC(=O)CC(NC(=O)Cn1nnc(-c2ccccc2Cl)n1)c1ccc(OC)cc1` (stereo not given), the AC50 was 31.6 µM [falling, single point].

`Clc1ccc(CCNc2nc3cc(Cl)c(Cl)cc3n3cnnc23)cc1`: the half-maximal activity concentration (AC50) is 20 µM [falling, single point].

Take `COC(=O)c1cc(NC(=O)c2oc(=O)c3ccccc3c2-c2ccccc2)cc(C(=O)OC)c1`: the AC50 was 2 µM [rising, full curve].

On to `Cc1ccc(NC(=O)c2c(NC(=O)c3ccco3)sc3c2CCC(C(C)(C)C)C3)c(C)c1` (stereo not given), for which the AC50 is 3.16 µM [falling, partial curve].

As to `COc1cc(OC)c(NC(=O)c2nnn(Cc3ccc(C)cc3)c2N)cc1Cl`, the half-maximal activity concentration (AC50) was 31.6 µM [falling, single point].

With `O=C(Cn1ncc2c3ccccc3n(Cc3ccc(Cl)cc3)c2c1=O)N1CCCCCC1`, the concentration at half-maximal activity (AC50) is 15.8 µM [falling, partial curve].

Take `Cc1cc(C)c2oc(-c3cccc(NC(=O)c4ccc(Br)o4)c3)nc2c1`: the AC50 was 12.6 µM [falling, partial curve].

Turning to `Cc1ccccc1Cn1cc(CCC(=O)NC(C)c2ccccc2)c2ccccc21` (stereo not given), the concentration at half-maximal activity (AC50) is 1 µM [falling, partial curve, poor fit].

Consider `CCC(C)c1ccc(OCC(=O)Nc2cccc(-c3nc4ncccc4o3)c2)cc1` (stereo not given), for which the concentration at half-maximal activity (AC50) is 12.6 µM [falling, partial curve].

In the case of `COC(=O)c1c(C(=O)OC)c2oc3ccccc3n2c1Cl`, the AC50 is 31.6 µM [falling, single point].

In the case of `CC1=C(c2ccc(C)cc2)S(=O)(=O)N(Cc2ccc(C(=O)NCc3cccc(C)c3)cc2)C1=O`, the half-maximal activity concentration (AC50) is 10 µM [falling, partial curve, poor fit].

In the case of `COc1cccc(-n2nnc3c(sc4nc(C)cc(C)c43)c2=O)c1`, the AC50 was 1 µM [rising, full curve].

For the compound `O=C(Nc1sc2c(c1C(=O)Nc1ccccc1Cl)CCCC2)c1ccccc1F`, the AC50 is 39.8 µM [falling, single point].

As for `O=C(NCc1ccccc1Br)C1CCCN(C(=O)N2CCOc3ccccc32)C1` (stereo not given), the AC50 was 0.0251 µM [falling, full curve].

The term AC50 denotes the concentration giving half of the maximal activity seen.
